Data: publication PMC5011961, “In vitro antimicrobial activities of animal-used quinoxaline 1,4-di-N-oxides against mycobacteria, mycoplasma and fungi” (BMC Veterinary Research, 2016)
In brackets after ≈: the same amount, converted by molar mass.

System: M. gallisepticum
Assay: Antimycoplasma assay, MIC in microtiter plates
Conditions: Mycoplasmoides gallisepticum

SMILES: CCC[C@@H]1C[C@@H](C(=O)N[C@@H]([C@H]2O[C@H](SC)[C@H](O)[C@@H](O)[C@H]2O)[C@H](C)Cl)N(C)C1 [Clindamycin, clindamycin]
- MIC (M. gallisepticum BG44T (10^4ccu/mL)): 0.6 mg/L (≈ 1.41 µM)
- MIC (M. gallisepticum PG31 (10^8 ccu/mL)): 3.2 mg/L (≈ 7.53 µM)
